The source of these data is the supplement of paper PMC4604168 (melanoma cell lines).

The list shows a part of the results. Repeats are few or missing, and single values can be far off.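 Imaging used 1,536-well plates; nuclei positive for cleaved PARP by antibody were divided by total DNA-stained nuclei to yield the apoptosis fraction. Doses for screening kept most cells viable, and cell lines differ markedly in resting and induced cleaved-PARP levels.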

The test concerns MZ2-MEL. Put plainly: cleaved PARP positive nuclei fraction relative to DMSO control; melanoma cells; higher = more apoptosis. The conditions noted are these: library dose: low library concentration; 72 h.
In the case of `O=C(O)[C@@H]1[O][Sb](=[O])([O][Sb]2(=[O])[O][C@H]([C@H](O)CO)[C@H](O)[C@H](C(=O)O)[O]2)[O][C@H]([C@H](O)CO)[C@@H]1O` (stereo not given in full) [stibogluconate] + O=C(O)c1ccc(-c2c[nH]c3ncc(-c4ccccc4)cc23)cc1C1CCCC1 [GSK650394] (first compound 2 µM, partner dose 0.16 µM), the “cleaved PARP positive nuclei fraction” value is 116%.

Take `Cn1c(=O)n(-c2ccc(C(C)(C)C#N)cc2)c2c3cc(-c4cnc5ccccc5c4)ccc3ncc21` + CCCCCCCCCCCC1=C(O)C(=O)C=C(O)C1=O [Embelin] (first compound 0.004 µM, partner dose 1.2 µM): the “cleaved PARP positive nuclei fraction” value was 129%.

As for `CN1CCN(c2ccc3nc(-c4c(N)c5c(F)cccc5[nH]c4=O)[nH]c3c2)CC1` [Dovitinib] + NCC(=O)Nc1ccc(-n2nc(C(F)(F)F)cc2-c2ccc3c(ccc4ccccc43)c2)cc1 [OSU03012] (first compound 0.1 µM, partner dose 1 µM), the “cleaved PARP positive nuclei fraction” value amounted to 70.3%.

As to `C=C(c1ccc(C(=O)O)cc1)c1cc2c(cc1C)C(C)(C)CCC2(C)C` [Bexarotene] + Cc1cc([N+](=O)[O-])ccc1NS(=O)(=O)c1cc(Cl)ccc1Cl [FH535] (first compound 2 µM, partner dose 1 µM), the “cleaved PARP positive nuclei fraction” value is 106%.

In the case of `Cc1cc(Nc2cc(N3CCN(C)CC3)nc(/C=C/c3ccccc3)n2)n[nH]1` + COC(=O)c1sccc1S(=O)(=O)Nc1ccc(Nc2ccccc2)cc1OC [GSK0660] (first compound 0.04 µM, partner dose 1 µM), the “cleaved PARP positive nuclei fraction” value came out at 93.9%.
